We go through 19 molecules from PMC10163288.

Sequences and labels used below:
B1: il2ra_site2_3nfp_normal_mot_HHH_b1_06589_000000230_0001_37_50_H_._HHH_b2_02495_0001_0000300051_0000001_0_af2pred_0001_af2pred (protein)
chain: SSSSSSDYRELLAKASEIAYERNDSEAFALLARLAYRYLKEGDPEIKEELEEILRELESSSSSSS
B2: il2ra_site1_2b5i_normal_mot_HHH_b1_06428_000000224_0001_1_17_H_._HHH_b1_02461_0001_0000700038_0000001_0_af2pred_dldesign_0_af2pred (protein)
chain: SSSSSSLAEARRLLLETEELLKAGKLEELAKLKKRIDALKAASDDPKVKKIADLINEALESSSSS
B3: il2ra_site1_3nfp_sap_16_mot_HHH_b1_00678_af2_000000150_0001_43_56_H_._585a058155b04fe6777c8c1b4ba6d3d7_0001_0001_0000100001_0000001_0_0001_af2pred_0001_af2pred_ … (protein)
chain: SAMEAAAREAKKEGTLEELVEEAIKELEENANIPPEEALKLLEKDARRLGDEDLVEVIEKLAEER
B4: il2ra_site1_3nfp_sap_18_mot_HHH_b2_03549_000000219_0001_1_18_H_._HHH_b1_06169_0001_0000200013_0000001_0_0001 (protein)
chain: NDERVASKLVEEAARSAGVDEVEVSVSNGTLHVEVSGGDRAARRVEEAAKQIAEWLGVEVEVTFE
B5: il2ra_site2_2erj_sap_20_mot_35d2dc24e2c4431f89e6f806b163ecf8_0001_af2_000000103_0001_35_49_H_._HHH_b1_04470_af2_0001_0000100002_0000001_0_0001 (protein)
chain: SSSSDIEEEIKKLIEEAEELEEEGDPEKALRVLWEAARLAFENNNAELSVRIARLAMELDSSSSS
B6: il2ra_site1_2b5i_normal_mot_HHH_b2_02543_000000227_0001_1_16_H_._HHH_b1_05698_0001_0000400012_0000001_0_af2pred_dldesign_0_af2pred (protein)
chain: SSSSDRRELIEKLEELYKKLAAKGDDETEDELYELFLEAVKSNDIELLEKALKLAEAALEKSSSS
B7: il2ra_site1_2b5i_sap_10_mot_HHH_b1_06833_000000178_0001_1_19_H_._HHH_b1_05697_0001_0000400022_0000001_0_0001_af2pred_dldesign_0_af2pred (protein)
chain: SSSSSAKELVDELLKEAERLYLAGEPELARRLLILARRVAKKAKDPELVKKVEDFEKKLLESSSS
B8: il2ra_site1_1z92_normal_mot_HHH_b1_07196_000000117_0001_22_39_H_._HHH_b1_00806_0001_0000100002_0000001_1_af2pred_0001_af2pred_1 (protein)
chain: SSSSDEEKKEARELFQRANEALENGNPEEARELLEEAEELAEEGNNPSLLRSIRLALKALESSSS
B9: il2ra_site2_2erj_normal_mot_HHH_b1_02968_000000142_0001_22_39_H_._HHH_b2_06361_0001_0000300022_0000001_0_af2pred_0001_1_af2pred_swapped (protein)
chain: SSSSSSSEEEEAEELLEEAKRLKDRREVMRLALEADRLANELGNDELAEEIQEVFERKSSSSSSS
B10: il2ra_site2_3nfp_normal_mot_HHH_b2_08004_af2_000000020_0001_1_15_H_._HHH_b2_02380_0001_0000300014_0000001_1_af2pred_0001_af2pred (protein)
chain: SSSSSQLEEAVKAALRTAKLAYEEGDPELAEIALHFAKAVAIAYNNPELEREVEEVERELKSSSS
B11: il2ra_site2_3nfp_sap_10_mot_73f63e3ba0c5fbd29b02c38bc3203c89_0001_1_000000101_0001_17_33_H_._HHH_b2_00001_0001_0000300016_0000001_1_0001_af2pred_0001_1_af2pred_ … (protein)
chain: SSSSSDAEELVRELLEEAKRIEDEEEVRKLAIEASRIAWERRDPRAFVLVAEFWRERAESSSSSS
B12: il2ra_site1_1z92_sap_11_mot_HHH_b1_07444_000000170_0001_1_15_H_._HHH_b1_02142_af2_0001_0000700018_0000001_0_0001_af2pred_0001_af2pred_swapped (protein)
chain: SSSSSELEERAKELVEEIVEEFGLSESDKRALERLAERAAELGSDDEAIRRDLERFAKFSTSSSS
B13: il2ra_site1_2b5i_sap_18_mot_89dc1dc23437faef961419e82e151d9c_0001_af2_000000202_0001_15_32_H_._9f08b0091ee0dae2b2d48aa630d4ec63_0001_1_0001_0000400022_0000001_0 … (protein)
chain: SSSSSIEELLEAMLELAEELIENGNPEEARAILLLARRAARAHGNPEYVKELERLLRELLSSSSS
B14: il2ra_site2_2erj_sap_22_mot_ef9cab360851164f21447f5d7f54bf9c_0001_1_000000008_0001_32_48_H_._5e8ab3ebaa49a9e680896593b179b5f8_0001_af2_0001_0000100011_0000001_0 … (protein)
chain: SSSSDEYEEEVKRLLEEAERAYEEGDLHEVYRLAVEATHLASEGNDDELLREVAKLAHRLSSSSS
B15: il2ra_site1_3nfp_sap_21_mot_HHH_b2_07180_000000236_0001_22_38_H_._HHH_b2_06514_0001_0000100002_0000001_0_0001 (protein)
chain: DEEEIKKEVQEILGVPPEEVEHIIRLMQKTMRVPPEEATRLLRRLARELEEGDPTAKLILRLLAE
B16: il2ra_site2_3nfp_normal_mot_0136b98644bc9a8eb58b95019b738ebb_0001_1_000000071_0001_1_13_H_._HHH_b1_01738_af2_0001_0000300010_0000001_0 (protein)
chain: SSSSDEEVDKLLVLLYRLLLEGDEEKFKEVLERLEELAEEHNDEDAKELVEEIREMREAASSSSS
B17: il2ra_site1_2b5i_sap_14_mot_f5ff40796168375b462bec8614a1db4a_0001_1_000000138_0001_53_65_H_._HHH_b1_06270_0001_0000300018_0000001_0_0001_af2pred_dldesign_0_af2p … (protein)
chain: SSSSSPLEKLVDEAIAKAEELKKQGKVREALEALQEAYDKASEADDEELQDRIEEKAKELSSSSS
B18: il2ra_site1_2b5i_normal_mot_f5ff40796168375b462bec8614a1db4a_0001_1_000000138_0001_53_65_H_._HHH_b2_04872_0001_0000400010_0000001_0_af2pred_dldesign_0_af2pred (protein)
chain: SSSSSSSVREDVDALLALAREEEDPVLRRRLLKLAEQLARKSGDPELVARVEEVRAELSSSSSSS
B19: il2ra_site1_3nfp_normal_mot_22aa8d8ad8dce7f663ea8fa348a52261_0001_000000276_0001_17_32_H_._a3b61943b7af24100a309c62926c5c00_0001_0001_0000400023_0000001_0_af2pr … (protein)
chain: SLEEKFEQVAREVGLPPVDIRAVKRIIEEARRQGVPPERILEALEDLAKALRDPDLEEVVELLER

The other results are listed elsewhere or left out.

The test addresses il2ra, P01589. The test is described as follows: yeast display titration.
Regarding B1, the “apparent Kd” value is “inactive: no binding seen”. The value for B2 was “inactive: no binding seen”; that for B3 was “inactive: no binding seen”. In the case of B4, the “apparent Kd” value was “inactive: no binding seen”. Take B5: the “apparent Kd” value was “inactive: no binding seen”. To B6 belongs “inactive: no binding seen”; to B7, “inactive: no binding seen”. For the molecule B8, the “apparent Kd” value is “inactive: no binding seen”. Turning to B9, the “apparent Kd” value was “inactive: no binding seen”. As for B10, the “apparent Kd” value is “inactive: no binding seen”.

Take B11: the “apparent Kd” value is “inactive: no binding seen”. Take B12: the “apparent Kd” value was “inactive: no binding seen”. With B13, the “apparent Kd” value was “inactive: no binding seen”. Take B14: the “apparent Kd” value was “inactive: no binding seen”. On to B15, for which the “apparent Kd” value is “inactive: no binding seen”. With B16, the “apparent Kd” value was “inactive: no binding seen”. Turning to B17, the “apparent Kd” value is “inactive: no binding seen”. To B18 belongs “inactive: no binding seen”; to B19, “inactive: no binding seen”.
